Broadly, the AC50 is the concentration giving half of the maximal activity seen.

The list shows a part of the results. Further columns of the screen follow, without active or inactive calls. Most of these compounds were active or inconclusive in the main read-out, so they are no random draw. Potencies come from curve fits of mixed quality, noted in brackets.

Our source for the AC50 values is PubChem BioAssay AID493014 (National Center for Advancing Translational Sciences (NCATS), 2011).

The experiment can be described thus: qHTS Assay to Find Inhibitors of Chronic Active B-Cell Receptor Signaling. The note with it: ABC-DLBCL IkBa-CBG/CBR reporter, luminescence ratio (green luciferase fused to IkBa over red control in TMD8 lymphoma cells), 4 h. The essentials: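 TMD8 ABC-DLBCL cells carrying doxycycline-inducible green luciferase fused to IkappaBalpha plus unfused red luciferase were exposed to compounds (up to 46 uM) for 4 hrs at 37C. Activity came from the overlap-corrected green/red luminescence ratio.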
Background: qHTS replaces the single test concentration by a dilution series.

Setting [1] is: measured here: CBR red luminescence, cell number.
[2] abbreviates: measured here: IkBa-CBG green luminescence.

Regarding `CCc1ccc(OCCSc2nc3ccccc3n2CCC(=O)O)cc1`, the AC50 under setting [1] is 5.01 µM [falling, full curve].

Regarding `O=C(Nc1nccs1)c1ccc(-c2ccc(F)c(Cl)c2)o1`, the AC50 under setting [1] was 7.94 µM [falling, partial curve, poor fit].

On to `CCOC(=O)c1cnc2c(c(C3CC3)nn2C)c1N1CCOCC1`, for which the AC50 under setting [1] is 6.31 µM [rising, single point].

Regarding `CC(C)(C)c1nnc(NC(=O)C2c3ccccc3Oc3ccccc32)s1`, under setting [1], the half-maximal activity concentration (AC50) is 3.16 µM [falling, full curve].

For the compound `O=C(Nc1nccs1)c1csc2c1CCCC2`, the AC50 under setting [1] was 4.61 µM [falling, full curve] and the concentration at half-maximal activity (AC50) under setting [2] is 1.16 µM [rising, partial curve, poor fit].

On to `CCc1nc2ccc(C(=O)Nc3ccc4c(c3)OCO4)cc2nc1CC`, for which the half-maximal activity concentration (AC50) under setting [1] was 7.08 µM [falling, full curve, poor fit].

In the case of `Fc1ccc(COc2ccc3ccccc3c2CNc2nn[nH]n2)cc1`, the AC50 under setting [1] is 12.6 µM [rising, partial curve, poor fit].

Regarding `O=C(/C=C/c1ccco1)Nc1cccc(NC(=O)/C=C/c2ccco2)n1`, the half-maximal activity concentration (AC50) under setting [1] is 20.6 µM [falling, partial curve].

With `Cc1ccc(S(=O)(=O)NCC(=O)OCC(=O)NC(=O)NC2CCCC2)cc1`, the AC50 under setting [1] is 3.16 µM [rising, full curve, poor fit].

On to `Nc1nn(-c2ccccc2)c2ccc([N+](=O)[O-])cc12`, for which the concentration at half-maximal activity (AC50) under setting [1] was 8.91 µM [falling, partial curve].

As for `CCCCCCn1c(=O)c(-c2ccccc2)c(O)c2ccccc21`, the half-maximal activity concentration (AC50) under setting [1] was 23.1 µM [falling, partial curve, poor fit].

Take `CN(C(=O)/C=C/c1ccc2c(c1)OCO2)c1ccccc1`: under setting [1], the half-maximal activity concentration (AC50) is 20 µM [falling, single point].

Turning to `CSc1ccccc1NC(=O)c1cc2c(=O)n3ccccc3nc2s1`, the half-maximal activity concentration (AC50) under setting [1] is 1.12 µM [falling, full curve].

Regarding `Cc1cnc(C(=O)OCC(=O)Nc2ccc(OCc3ccccc3)cc2)cn1`, the half-maximal activity concentration (AC50) under setting [1] was 2.59 µM [rising, full curve, poor fit].

As to `COc1cc2c(cc1OC)CN(C(=O)Cc1ccccc1)CC2`, the AC50 under setting [1] is 14.1 µM [falling, partial curve, poor fit].

Consider `Cc1cc(N/N=C/c2cccc(Br)c2)nc2ccccc12`, for which the AC50 under setting [1] is 2.59 µM [rising, full curve].

For the compound `CN(c1ccccc1)S(=O)(=O)c1cccc(NC(=O)CCNC(=O)c2ccc(Cl)cc2)c1`, the AC50 under setting [1] was 18.4 µM [falling, single point].

Turning to `C[C@]12c3[nH]c4ccc(Cl)cc4c3CCN1C(=O)[C@@H](CC(=O)NCc1cccc(C(F)(F)F)c1)C[C@@H]2C(=O)N1CCOCC1`, the AC50 under setting [1] was 29.1 µM [falling, single point].

Turning to `C(=C\CSc1ncn[nH]1)/CSc1ncn[nH]1`, the half-maximal activity concentration (AC50) under setting [1] is 25.9 µM [rising, single point].

For `COc1ccc2nc(N3C(=O)CC(Cc4cc(C)cc(C)c4)C3=O)sc2c1` (stereo not drawn), the half-maximal activity concentration (AC50) under setting [1] is 35.5 µM [falling, single point].

With `Nc1cccc2c1C(=O)N(C(=O)c1cccc(S(=O)(=O)N3CCCC3)c1)C2=O`, the AC50 under setting [1] was 2.59 µM [falling, full curve].

Regarding `CNC(=S)N1N=C(c2ccc(Br)cc2)CC1c1ccc(Br)cc1` (stereo not drawn), the AC50 under setting [1] is 23.1 µM [rising, single point].

In the case of `Cc1cc(=O)n(Cc2ccccc2)c2c(C)cccc12`, the AC50 under setting [1] was 0.316 µM [rising, full curve, poor fit].

Consider `COc1ccc(-c2cc(C(=O)NC(C)c3ccccc3)c3cc(C(C)C)ccc3n2)cc1` (stereo not drawn), for which, under setting [1], the concentration at half-maximal activity (AC50) is 4.47 µM [rising, partial curve, poor fit].

On to `CCOC(=O)c1c(N)n(CCOC(=O)c2cccs2)c2nc3ccccc3nc12`, for which, under setting [1], the half-maximal activity concentration (AC50) was 22.4 µM [falling, single point].

With `O=C(CN1C(=O)/C(=C/c2ccccc2)SC1=S)NC1C=CS(=O)(=O)C1` (stereo not drawn), under setting [1], the concentration at half-maximal activity (AC50) was 12.6 µM [falling, partial curve].

Regarding `CN1C(CC(=O)Nc2ccc(Br)cc2)c2ccccc2CC1(C)C` (stereo not drawn), the AC50 under setting [1] is 11.2 µM [falling, single point].

As to `CC1C=CCC2C(=O)N(c3cccc(C(=O)Nc4ccc(F)cc4)c3)C(=O)C12` (stereo not drawn), the AC50 under setting [1] was 35.5 µM [falling, single point].

On to `Cc1ccn2c(c1)nc(=S)n2C(=O)c1ccco1`, for which, under setting [1], the AC50 was 0.651 µM [rising, full curve].

For the compound `O=C1CN(CC(=O)N2CCOCC2)c2ccccc2O1`, the half-maximal activity concentration (AC50) under setting [1] is 3.16 µM [falling, partial curve].

Take `COc1ccc(S(=O)(=O)n2nc(C)cc2C)c(C)c1C`: the half-maximal activity concentration (AC50) under setting [1] was 6.51 µM [rising, single point].

As for `COc1cccc2cc(/C(=N/O)c3ccc(Br)cc3)oc12`, the AC50 under setting [1] is 25.1 µM [rising, single point].

Turning to `CCOC(=O)Nc1ccc2c(c1)N(C(=O)CCN(CC)CC)c1ccccc1CC2`, the concentration at half-maximal activity (AC50) under setting [1] was 8.91 µM [falling, partial curve].

With `CCOC(=O)C1=C(c2ccccc2)N(C)C(=O)NC1c1ccc(OC(F)F)c(OC)c1` (stereo not drawn), the AC50 under setting [1] was 22.4 µM [falling, single point].

As to `CCOc1ccccc1NC(=O)Cn1nnc(-c2ccc(OCC)c(OCC)c2)n1`, the AC50 under setting [1] was 23.1 µM [falling, single point].

With `Cn1cnc2c1c(=O)n(Cc1ccccc1)c(=O)n2C`, the AC50 runs as follows: under setting [1], 5.17 µM [falling, partial curve, poor fit]; under setting [2], 2.06 µM [rising, partial curve, poor fit].

Turning to `Cc1nn(S(=O)(=O)N2CCCCC2)c(C)c1Br`, under setting [1], the AC50 is 4.11 µM [rising, single point].

Turning to `COc1ccccc1C1(O)CCN(CC(=O)Nc2nc(-c3ccccc3)cs2)CC1`, the half-maximal activity concentration (AC50) under setting [1] is 2 µM [rising, partial curve, poor fit].

With `CC1(C)CC(=O)C=C(Nc2cc(-c3ccccc3)[nH]n2)C1`, the half-maximal activity concentration (AC50) under setting [1] was 14.1 µM [falling, partial curve].

With `Cc1occc1C(=O)N/N=C/C(Br)=C\c1ccccc1`, under setting [1], the half-maximal activity concentration (AC50) was 10 µM [falling, partial curve].

On to `CCc1c(C)[nH]n(-c2nc(-c3ccccc3)cs2)c1=O`, for which the AC50 under setting [1] is 0.794 µM [rising, full curve, poor fit].

For `COCCN(CC(=O)Nc1cccc(C)c1C)C(=O)CN1C(=O)NC2(CCCCC2)C1=O`, the AC50 under setting [1] was 32.6 µM [rising, single point].

With `CSc1nc2ccc(NC(=O)CSc3nnc(N)s3)cc2s1`, under setting [1], the concentration at half-maximal activity (AC50) was 32.6 µM [falling, single point].

`COc1cc(OC)c2c(-c3cccc(-c4ccc(N(C)C)cc4)c3)cc(=O)oc2c1`: the AC50 by setting is: under setting [1], 1.3 µM [rising, full curve]; under setting [2], 1.84 µM [falling, full curve].

Regarding `O=C(CSc1n[nH]c(-c2ccccc2)n1)c1ccccc1`, the AC50 under setting [1] is 23.1 µM [falling, partial curve].

With `O=C(NNC(=O)c1cccc(O)c1)Nc1ccc([N+](=O)[O-])cc1`, under setting [1], the concentration at half-maximal activity (AC50) was 12.6 µM [falling, partial curve].

With `COc1cc(C(=O)Nc2ccc3c(c2)OCCO3)ccc1OC(F)F`, the concentration at half-maximal activity (AC50) under setting [1] was 25.1 µM [falling, single point].

Take `Cn1nc(-c2ccccc2)c2nc3ccccc3nc21`: under setting [1], the AC50 was 5.62 µM [rising, single point].

With `COc1cc(/C=N/Nc2nncn2/N=C/c2ccc(O)c(OC)c2)ccc1O`, the AC50 under setting [1] was 35.5 µM [falling, single point].

For the compound `C=C(C)c1cccc(C(C)(C)NC(=O)NC2CCN(Cc3ccccc3)CC2)c1`, the AC50 under setting [1] was 17.8 µM [falling, partial curve].

Turning to `Cc1ccc(S(=O)(=O)N/N=C/c2ccc(OCC(=O)Nc3ccccc3Cl)cc2)cc1`, the AC50 under setting [1] is 35.5 µM [falling, partial curve, poor fit].

On to `CCOc1ccc(S(=O)(=O)n2ccnc2C)cc1`, for which the half-maximal activity concentration (AC50) under setting [1] is 0.0891 µM [rising, full curve, poor fit].

As for `O=C(Nc1ccc(Cl)cc1)c1csc(-c2ccccc2)n1`, the AC50 under setting [1] was 29.1 µM [falling, single point].

`Cc1cc(C)n2cc(-c3ccc(Cl)cc3)c(C(=O)O)c2n1`: the AC50 under setting [1] is 1 µM [falling, full curve].

Turning to `CN(C)c1cc(N/N=C/c2ccccc2C(F)(F)F)nc(N(C)C)n1`, the AC50 under setting [1] was 0.708 µM [rising, full curve, poor fit].

As to `CCOC(=O)CN1C(=O)CC(c2ccc([N+](=O)[O-])cc2)C1=O` (stereo not drawn), the concentration at half-maximal activity (AC50) under setting [1] is 35.5 µM [rising, single point].

`N#CC1=C(N)SC(N)=C(C#N)C1c1c(Cl)cccc1Cl`: the AC50 under setting [1] is 35.5 µM [falling, single point].

`COc1ccc2cc(C(=O)NCC(=O)O)sc(=O)c2c1OC`: under setting [1], the AC50 was 0.224 µM [falling, full curve, poor fit].

With `COC(=O)c1ccc2c(c1)SC1=C(CCCC1=O)N2`, under setting [1], the AC50 was 4.11 µM [rising, full curve, poor fit].

For the compound `CCOC(=O)NC(Nc1nnc(SCC)s1)(C(F)(F)F)C(F)(F)F`, the concentration at half-maximal activity (AC50) under setting [1] was 14.6 µM [rising, single point].

On to `CC(=O)c1ccc(-n2c(CCC(=O)O)ccc2-c2ccccc2)cc1`, for which, under setting [1], the AC50 was 25.1 µM [rising, single point].

As for `Cc1ccc2[nH]c(=O)c(CN3CCCCC3)c(-c3ccccc3)c2c1`, the concentration at half-maximal activity (AC50) under setting [2] is 11.2 µM [falling, partial curve, poor fit].

Take `Cc1ccc(OCC(=O)NCc2ccco2)cc1C`: the half-maximal activity concentration (AC50) under setting [1] was 20.6 µM [falling, single point].

As for `O=C(Cc1ccccc1)NNc1ccc2ccccc2c1`, under setting [1], the AC50 was 0.794 µM [falling, full curve].

As for `COc1ccc(C2C(C#N)=C(N)OC3=C2C(=O)CC(C)(C)C3)cc1OC` (stereo not drawn), the AC50 under setting [1] was 6.31 µM [rising, single point].
